This is one part of the list.
How the values were obtained:
Test in all cases: log2 fold change, soluble protein after heating vs DMSO (PISA); higher = thermal stabilisation; K562 cells, 10 uM, 30 min; active = over 0.2 and 3.5 SD of the protein, either way, in both replicates (recomputed)
[1] = compound: COC1=CC=C(C=C1)CN2C=CC3=C2C=C(C=C3)C(=O)NO
Procedure, shortened: (§1)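 K562 cells at 2×10^6 cells/mL were treated with 10 μM compound for 30 min. Aliquots were heated for 3 min across 48°C-58°C, pooled, and extracted in PBS with 0.5% NP-40 at 4°C; soluble protein was the supernatant after 21,000xg for 90 min. Soluble protein was quantified by TMTpro 16plex LC-MS/MS with channel sums equalised, and reported as log2 fold change in thermal stability against DMSO controls, with values from duplicates.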

The chains behind the UniProt entries cited, without tags or fusion partners. Where a name states a change or a piece, a line headed by the entry shows the natural chain unless it says otherwise.
UniProt P61960, whole entry, looked up: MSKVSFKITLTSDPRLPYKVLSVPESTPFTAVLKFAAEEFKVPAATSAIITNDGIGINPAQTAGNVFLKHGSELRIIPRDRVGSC
UniProt Q9BZM6: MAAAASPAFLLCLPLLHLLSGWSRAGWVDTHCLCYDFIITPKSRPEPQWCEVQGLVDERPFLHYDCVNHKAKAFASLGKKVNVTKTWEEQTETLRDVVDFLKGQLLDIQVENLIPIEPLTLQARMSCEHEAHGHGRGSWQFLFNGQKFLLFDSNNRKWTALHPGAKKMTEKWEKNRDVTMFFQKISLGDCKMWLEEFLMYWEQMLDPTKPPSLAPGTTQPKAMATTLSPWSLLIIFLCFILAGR
UniProt O75691: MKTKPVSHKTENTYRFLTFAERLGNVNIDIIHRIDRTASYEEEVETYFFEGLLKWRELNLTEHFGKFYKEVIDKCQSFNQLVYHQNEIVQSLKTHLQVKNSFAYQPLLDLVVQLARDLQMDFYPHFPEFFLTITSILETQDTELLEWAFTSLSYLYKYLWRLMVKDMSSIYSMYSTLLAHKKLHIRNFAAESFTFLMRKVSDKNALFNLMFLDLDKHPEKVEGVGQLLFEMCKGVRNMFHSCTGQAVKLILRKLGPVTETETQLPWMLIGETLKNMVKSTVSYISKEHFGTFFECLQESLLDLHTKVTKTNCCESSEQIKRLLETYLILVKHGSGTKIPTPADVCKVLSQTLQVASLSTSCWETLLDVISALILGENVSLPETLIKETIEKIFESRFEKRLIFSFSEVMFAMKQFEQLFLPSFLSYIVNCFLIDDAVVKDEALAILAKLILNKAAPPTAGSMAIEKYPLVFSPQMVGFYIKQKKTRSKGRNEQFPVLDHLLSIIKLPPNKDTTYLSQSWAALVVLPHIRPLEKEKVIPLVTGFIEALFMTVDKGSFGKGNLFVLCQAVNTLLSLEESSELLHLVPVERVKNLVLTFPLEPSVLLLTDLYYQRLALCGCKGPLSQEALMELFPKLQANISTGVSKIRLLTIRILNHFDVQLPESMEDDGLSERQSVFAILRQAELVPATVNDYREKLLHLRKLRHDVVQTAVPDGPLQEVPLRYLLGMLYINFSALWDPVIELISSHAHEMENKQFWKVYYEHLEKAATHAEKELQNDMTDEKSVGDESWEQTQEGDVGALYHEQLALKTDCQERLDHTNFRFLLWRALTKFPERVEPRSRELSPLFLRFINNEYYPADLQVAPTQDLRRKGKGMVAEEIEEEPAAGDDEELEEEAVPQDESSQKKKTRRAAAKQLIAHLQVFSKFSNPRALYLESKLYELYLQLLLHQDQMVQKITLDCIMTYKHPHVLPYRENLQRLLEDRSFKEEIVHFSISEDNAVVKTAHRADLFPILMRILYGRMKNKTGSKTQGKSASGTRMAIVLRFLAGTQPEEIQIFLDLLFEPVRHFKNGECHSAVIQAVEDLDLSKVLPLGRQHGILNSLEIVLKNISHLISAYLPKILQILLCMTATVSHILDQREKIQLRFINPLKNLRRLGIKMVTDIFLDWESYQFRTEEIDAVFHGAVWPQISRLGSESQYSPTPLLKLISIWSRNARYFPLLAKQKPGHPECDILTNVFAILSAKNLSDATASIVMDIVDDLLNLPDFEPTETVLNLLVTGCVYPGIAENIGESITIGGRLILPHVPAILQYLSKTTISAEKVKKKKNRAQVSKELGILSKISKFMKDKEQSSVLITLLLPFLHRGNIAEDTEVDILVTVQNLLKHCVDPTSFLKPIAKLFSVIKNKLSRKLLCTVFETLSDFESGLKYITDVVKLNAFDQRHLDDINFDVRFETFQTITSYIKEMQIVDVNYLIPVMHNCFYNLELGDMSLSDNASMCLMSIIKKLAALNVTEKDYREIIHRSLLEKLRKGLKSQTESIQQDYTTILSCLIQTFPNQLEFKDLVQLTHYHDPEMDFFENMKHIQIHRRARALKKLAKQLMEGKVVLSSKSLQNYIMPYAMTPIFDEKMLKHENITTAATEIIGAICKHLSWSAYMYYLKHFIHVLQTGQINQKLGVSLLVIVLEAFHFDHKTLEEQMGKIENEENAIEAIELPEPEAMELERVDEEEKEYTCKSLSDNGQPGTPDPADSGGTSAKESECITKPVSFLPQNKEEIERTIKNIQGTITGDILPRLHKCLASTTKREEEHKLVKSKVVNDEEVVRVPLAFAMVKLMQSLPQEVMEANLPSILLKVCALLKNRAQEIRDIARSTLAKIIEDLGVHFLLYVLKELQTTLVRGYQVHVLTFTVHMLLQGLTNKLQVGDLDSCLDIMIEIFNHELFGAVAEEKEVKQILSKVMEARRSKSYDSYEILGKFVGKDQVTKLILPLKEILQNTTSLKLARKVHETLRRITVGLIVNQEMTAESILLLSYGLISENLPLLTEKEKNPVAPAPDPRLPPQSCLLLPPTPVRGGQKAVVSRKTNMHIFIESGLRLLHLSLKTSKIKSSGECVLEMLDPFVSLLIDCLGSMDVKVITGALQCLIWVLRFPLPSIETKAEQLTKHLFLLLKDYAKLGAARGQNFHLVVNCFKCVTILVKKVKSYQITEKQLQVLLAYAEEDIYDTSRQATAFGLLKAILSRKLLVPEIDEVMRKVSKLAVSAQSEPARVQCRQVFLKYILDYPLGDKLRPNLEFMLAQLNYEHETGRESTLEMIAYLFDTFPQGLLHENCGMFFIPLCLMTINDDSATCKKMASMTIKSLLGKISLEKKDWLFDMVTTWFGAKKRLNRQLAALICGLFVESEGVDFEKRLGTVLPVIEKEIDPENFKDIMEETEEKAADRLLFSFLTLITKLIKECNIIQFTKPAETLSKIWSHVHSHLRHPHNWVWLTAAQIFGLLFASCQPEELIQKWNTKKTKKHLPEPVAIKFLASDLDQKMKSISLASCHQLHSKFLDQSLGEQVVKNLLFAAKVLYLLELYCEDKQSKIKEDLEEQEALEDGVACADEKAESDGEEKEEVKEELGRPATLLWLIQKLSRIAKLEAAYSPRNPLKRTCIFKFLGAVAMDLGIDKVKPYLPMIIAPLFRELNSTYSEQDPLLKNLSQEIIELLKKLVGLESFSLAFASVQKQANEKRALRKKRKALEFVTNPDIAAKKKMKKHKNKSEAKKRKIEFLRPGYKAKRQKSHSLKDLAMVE
UniProt Q6PHR2: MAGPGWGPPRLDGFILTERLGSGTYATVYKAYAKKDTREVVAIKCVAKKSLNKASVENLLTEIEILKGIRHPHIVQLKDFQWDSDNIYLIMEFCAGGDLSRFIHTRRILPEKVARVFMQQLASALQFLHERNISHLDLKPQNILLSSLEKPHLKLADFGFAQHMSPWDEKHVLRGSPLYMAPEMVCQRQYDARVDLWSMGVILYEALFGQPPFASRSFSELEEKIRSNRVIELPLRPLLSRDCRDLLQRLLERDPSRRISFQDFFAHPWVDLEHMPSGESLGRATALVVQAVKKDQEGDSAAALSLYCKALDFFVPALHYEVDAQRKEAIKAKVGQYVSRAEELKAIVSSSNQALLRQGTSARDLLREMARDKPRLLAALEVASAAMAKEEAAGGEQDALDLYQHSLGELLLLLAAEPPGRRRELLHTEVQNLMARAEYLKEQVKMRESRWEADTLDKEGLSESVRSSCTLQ
UniProt Q86UV5: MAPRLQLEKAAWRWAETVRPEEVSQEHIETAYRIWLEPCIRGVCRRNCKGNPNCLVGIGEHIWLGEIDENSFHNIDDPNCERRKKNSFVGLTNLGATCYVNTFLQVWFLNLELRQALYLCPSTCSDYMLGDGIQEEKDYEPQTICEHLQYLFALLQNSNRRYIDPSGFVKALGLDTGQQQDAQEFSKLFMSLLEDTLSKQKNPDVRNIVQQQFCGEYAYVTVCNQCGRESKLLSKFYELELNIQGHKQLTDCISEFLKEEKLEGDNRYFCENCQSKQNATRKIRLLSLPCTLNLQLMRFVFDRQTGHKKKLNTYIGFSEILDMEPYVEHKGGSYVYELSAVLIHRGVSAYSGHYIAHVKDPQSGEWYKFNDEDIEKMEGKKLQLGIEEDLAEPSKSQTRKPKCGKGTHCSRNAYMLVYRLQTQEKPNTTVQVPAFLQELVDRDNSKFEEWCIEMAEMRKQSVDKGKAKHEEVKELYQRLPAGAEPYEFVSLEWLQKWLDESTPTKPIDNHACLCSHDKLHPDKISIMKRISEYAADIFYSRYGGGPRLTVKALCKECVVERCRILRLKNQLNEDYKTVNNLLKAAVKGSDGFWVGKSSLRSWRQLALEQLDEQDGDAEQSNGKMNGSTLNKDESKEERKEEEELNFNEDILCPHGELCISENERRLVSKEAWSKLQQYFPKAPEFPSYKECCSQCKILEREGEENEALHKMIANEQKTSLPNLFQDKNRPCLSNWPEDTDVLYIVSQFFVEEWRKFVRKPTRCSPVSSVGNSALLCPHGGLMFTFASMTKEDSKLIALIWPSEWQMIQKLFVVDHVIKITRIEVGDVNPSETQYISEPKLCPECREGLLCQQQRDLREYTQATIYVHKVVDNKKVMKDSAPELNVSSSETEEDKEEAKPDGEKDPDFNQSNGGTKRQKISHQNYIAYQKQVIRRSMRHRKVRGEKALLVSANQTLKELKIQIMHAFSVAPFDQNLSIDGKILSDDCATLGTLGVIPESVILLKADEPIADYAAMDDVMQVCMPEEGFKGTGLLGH
UniProt Q96T88: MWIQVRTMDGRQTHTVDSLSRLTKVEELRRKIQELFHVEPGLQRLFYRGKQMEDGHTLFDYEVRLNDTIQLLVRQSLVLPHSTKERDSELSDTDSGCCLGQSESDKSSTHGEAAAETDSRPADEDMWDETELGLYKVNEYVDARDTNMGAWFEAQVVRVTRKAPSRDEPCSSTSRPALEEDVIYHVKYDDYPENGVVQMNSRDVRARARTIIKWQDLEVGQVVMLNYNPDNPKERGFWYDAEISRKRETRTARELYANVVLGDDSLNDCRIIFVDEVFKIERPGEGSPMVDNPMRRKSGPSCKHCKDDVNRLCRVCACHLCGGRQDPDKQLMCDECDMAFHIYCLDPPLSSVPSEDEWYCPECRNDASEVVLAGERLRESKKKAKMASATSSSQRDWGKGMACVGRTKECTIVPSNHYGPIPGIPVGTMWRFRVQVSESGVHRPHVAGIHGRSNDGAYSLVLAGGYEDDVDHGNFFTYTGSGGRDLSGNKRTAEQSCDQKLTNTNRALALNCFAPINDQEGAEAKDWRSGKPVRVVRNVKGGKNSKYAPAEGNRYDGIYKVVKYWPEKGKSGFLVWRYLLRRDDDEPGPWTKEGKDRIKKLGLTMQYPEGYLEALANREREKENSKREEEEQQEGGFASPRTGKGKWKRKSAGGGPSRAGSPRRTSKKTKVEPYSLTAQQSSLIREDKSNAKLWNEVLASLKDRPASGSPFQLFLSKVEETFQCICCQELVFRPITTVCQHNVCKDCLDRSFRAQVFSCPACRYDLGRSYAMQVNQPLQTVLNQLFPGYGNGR
UniProt P09936: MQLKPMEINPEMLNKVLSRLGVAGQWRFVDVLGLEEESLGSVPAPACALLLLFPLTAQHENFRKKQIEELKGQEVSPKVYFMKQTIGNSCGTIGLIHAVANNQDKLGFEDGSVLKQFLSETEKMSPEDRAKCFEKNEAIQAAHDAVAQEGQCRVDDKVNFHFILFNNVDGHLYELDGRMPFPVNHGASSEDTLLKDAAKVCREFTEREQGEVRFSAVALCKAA
UniProt Q6UW78: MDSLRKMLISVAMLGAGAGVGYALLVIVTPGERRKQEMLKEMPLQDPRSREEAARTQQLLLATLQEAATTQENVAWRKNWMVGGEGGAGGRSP
UniProt O00124: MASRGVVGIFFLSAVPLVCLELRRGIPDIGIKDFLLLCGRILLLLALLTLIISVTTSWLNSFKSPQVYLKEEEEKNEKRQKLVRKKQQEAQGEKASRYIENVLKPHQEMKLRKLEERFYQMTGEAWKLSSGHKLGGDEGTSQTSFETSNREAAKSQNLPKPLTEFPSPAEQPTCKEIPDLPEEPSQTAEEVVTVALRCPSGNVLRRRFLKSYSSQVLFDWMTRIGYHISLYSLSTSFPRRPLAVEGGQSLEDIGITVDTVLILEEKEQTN
UniProt Q9UMX0, whole entry, looked up: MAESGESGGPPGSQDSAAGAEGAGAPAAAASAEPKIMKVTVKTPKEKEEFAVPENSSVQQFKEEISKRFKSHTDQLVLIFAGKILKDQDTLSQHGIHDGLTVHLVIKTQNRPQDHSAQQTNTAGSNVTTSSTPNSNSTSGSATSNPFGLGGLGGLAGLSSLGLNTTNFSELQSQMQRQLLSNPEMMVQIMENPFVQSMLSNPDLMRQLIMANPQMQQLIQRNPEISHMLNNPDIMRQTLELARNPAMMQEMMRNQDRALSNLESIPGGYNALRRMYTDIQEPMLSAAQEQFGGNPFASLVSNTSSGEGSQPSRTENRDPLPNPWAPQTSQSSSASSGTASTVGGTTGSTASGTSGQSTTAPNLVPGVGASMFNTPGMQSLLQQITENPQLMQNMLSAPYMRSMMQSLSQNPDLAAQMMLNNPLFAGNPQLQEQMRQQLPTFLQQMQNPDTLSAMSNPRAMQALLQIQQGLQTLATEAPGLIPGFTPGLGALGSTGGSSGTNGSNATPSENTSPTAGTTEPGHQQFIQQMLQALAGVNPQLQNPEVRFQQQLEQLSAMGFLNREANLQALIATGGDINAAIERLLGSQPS

filanesib = compound: CON(C)C(=O)N1N=C(c2cc(F)ccc2F)S[C@@]1(CCCN)c1ccccc1 [filanesib]
Procedure, shortened: as §1

idasanutlin = compound: COc1cc(C(=O)O)ccc1NC(=O)[C@@H]1N[C@@H](CC(C)(C)C)[C@](C#N)(c2ccc(Cl)cc2F)[C@H]1c1cccc(Cl)c1F [idasanutlin]
Procedure, shortened: as §1

alisertib = compound: COc1cc(Nc2ncc3c(n2)-c2ccc(Cl)cc2C(c2c(F)cccc2OC)=NC3)ccc1C(=O)O [alisertib]
Procedure, shortened: as §1

gefitinib = compound: COc1cc2ncnc(Nc3ccc(F)c(Cl)c3)c2cc1OCCCN1CCOCC1 [gefitinib]
Procedure, shortened: as §1

[2] = compound: COc1cccc2cc(-c3nc([C@H]4CC[C@H](C(=O)O)CC4)n4ncnc(N)c34)[nH]c12
Procedure, shortened: as §1

[3] = compound: CS(=O)(=O)c1ccc(-c2cnc(N)c(C(=O)Nc3ccccc3)n2)cc1
Procedure, shortened: as §1

crizotinib = compound: C[C@@H](Oc1cc(-c2cnn(C3CCNCC3)c2)cnc1N)c1c(Cl)ccc(F)c1Cl [crizotinib]
Procedure, shortened: as §1

doramapimod = compound: Cc1ccc(-n2nc(C(C)(C)C)cc2NC(=O)Nc2ccc(OCCN3CCOCC3)c3ccccc23)cc1 [doramapimod]
Procedure, shortened: as §1

[4] = compound: C[C@@H]1COCCN1C2=NC(=NC(=C2)C3(CC3)S(=O)(=O)C)C4=C5C=CNC5=CC=C4
Procedure, shortened: as §1

zotarolimus = compound: CO[C@H]1C[C@@H]2CC[C@@H](C)[C@@](O)(O2)C(=O)C(=O)N2CCCC[C@H]2C(=O)O[C@H]([C@H](C)C[C@@H]2CC[C@H](n3cnnn3)[C@H](OC)C2)CC(=O)[C@H](C)/C=C(\C)[C@@H](O)[C@@H](OC)C(=O)[C@H](C)C[C@H](C)/C=C/C=C/C=C/1C [zotarolimus]
Procedure, shortened: as §1

pictilisib = compound: CS(=O)(=O)N1CCN(Cc2cc3nc(-c4cccc5[nH]ncc45)nc(N4CCOCC4)c3s2)CC1 [pictilisib]
Procedure, shortened: as §1

[5] = compound: C[C@H](C1=CC=C(C=C1)C(=O)NC2=C3C=CNC3=NC=C2)N
Procedure, shortened: as §1

duvelisib = compound: C[C@H](Nc1ncnc2nc[nH]c12)c1cc2cccc(Cl)c2c(=O)n1-c1ccccc1 [duvelisib]
Procedure, shortened: as §1

gandotinib = compound: Cc1cc(Nc2cc(CN3CCOCC3)c3nc(C)c(Cc4ccc(Cl)cc4F)n3n2)n[nH]1 [gandotinib]
Procedure, shortened: as §1

[6] = compound: Cc1cc(SCc2sc(-c3ccc(C(F)(F)F)cc3)nc2C)ccc1OCC(=O)O
Procedure, shortened: as §1

[7] = compound: COc1cc2nc(-c3cc(F)ccc3O)nc(N[C@@H]3CNC[C@H]3C(C)(C)O)c2cc1OC
Procedure, shortened: as §1

lapatinib = compound: CS(=O)(=O)CCNCc1ccc(-c2ccc3ncnc(Nc4ccc(OCc5cccc(F)c5)c(Cl)c4)c3c2)o1 [lapatinib]
Procedure, shortened: as §1

tozasertib = compound: Cc1cc(Nc2cc(N3CCN(C)CC3)nc(Sc3ccc(NC(=O)C4CC4)cc3)n2)n[nH]1 [tozasertib]
Procedure, shortened: as §1

ispinesib = compound: Cc1ccc(C(=O)N(CCCN)[C@@H](c2nc3cc(Cl)ccc3c(=O)n2Cc2ccccc2)C(C)C)cc1 [ispinesib]
Procedure, shortened: as §1

Measured: log2 fold change

UGP2 (UniProt C9JWG0)
inactive: [1] -0.002 | filanesib 0.099 | idasanutlin 0.009 | alisertib 0.136 | gefitinib 0.101 | [2] 0.26 | [3] 0.088 | crizotinib 0.038 | doramapimod 0.283

UTP14C (UniProt Q5TAP6)
inactive: [1] 0.122 | filanesib -0.056 | [3] 0.103 | crizotinib -0.248 | [4] 0.131 | doramapimod -0.026

UBR1 (UniProt Q8IWV7)
inactive: filanesib 0.093 | zotarolimus 0.273 | idasanutlin 0.144 | alisertib -0.008 | gefitinib 0.027 | [2] -0.031 | pictilisib 0.104 | [3] 0.075 | [4] 0.024 | [5] 0.155 | duvelisib 0.213 | gandotinib 0.025 | [6] -0.276

ULBP2 (UniProt Q9BZM5)
inactive: filanesib 0.252 | zotarolimus -0.406 | alisertib 0.003 | [7] 0.532 | gefitinib 0.068 | [2] 0.059 | lapatinib 0.224 | [3] 0.01 | [4] 0.08 | [5] 0.312 | tozasertib 0.168 | ispinesib -0.194

USP11 (UniProt P51784)
inactive: filanesib 0.306 | zotarolimus -0.028 | alisertib 0.109 | [7] -0.093 | [2] -0.48 | lapatinib 0.163 | pictilisib -0.064 | [3] -0.02 | [4] -0.315 | [5] 0.456 | duvelisib -0.015 | gandotinib 0.012 | [6] 0.028 | ispinesib -0.155

UFM1 isoform 2 (UniProt P61960)
inactive: filanesib -0.12 | zotarolimus -0.048 | idasanutlin 0 | alisertib -0.067 | [7] -0.085 | gefitinib 0.027 | [2] 0.008 | lapatinib -0.052 | pictilisib -0.062 | [3] -0.009 | [4] -0.065 | [5] -0.157 | gandotinib -0.066 | [6] 0.063

ULBP1 (UniProt Q9BZM6)
inactive: filanesib 0.071 | zotarolimus 0.022 | idasanutlin 0.036 | alisertib -0.023 | [7] 0.164 | [2] 0.001 | lapatinib 0.002 | [3] 0.188 | [4] 0.192 | [5] 0.156 | [6] 0.014 | ispinesib 0.011

UNG (UniProt P13051)
inactive: filanesib 0.035 | zotarolimus -0.013 | idasanutlin 0.004 | alisertib 0.024 | [2] -0.066 | pictilisib -0.011 | [3] -0.04 | [4] -0.143 | [5] -0.023 | duvelisib 0.045 | gandotinib -0.181 | tozasertib -0.124 | [6] -0.065

URB2 (UniProt Q14146)
inactive: [1] -0.017 | zotarolimus -0.062 | idasanutlin -0.228 | gefitinib -0.107 | crizotinib -0.582 | [5] 0.078 | doramapimod -0.172

USB1 (UniProt Q9BQ65)
inactive: zotarolimus 0.011 | [7] 0.123 | lapatinib -0.092 | pictilisib -0.206 | [5] -0.079 | gandotinib -0.25 | tozasertib -0.018

USP12 (UniProt O75317)
inactive: zotarolimus 0.078 | idasanutlin -0.022 | alisertib 0.025 | [2] 0.264 | pictilisib 0.038 | [5] -0.101 | duvelisib 0.045 | gandotinib 0.003 | tozasertib -0.098 | [6] -0.134 | ispinesib -0.037

Retrieved one by one from the list above, 2 records:
USP12 (UniProt O75317)
inactive: zotarolimus 0.078 | idasanutlin -0.022 | alisertib 0.025 | [2] 0.264 | pictilisib 0.038 | [5] -0.101 | duvelisib 0.045 | gandotinib 0.003 | tozasertib -0.098 | [6] -0.134 | ispinesib -0.037

ULBP1 (UniProt Q9BZM6)
inactive: filanesib 0.071 | zotarolimus 0.022 | idasanutlin 0.036 | alisertib -0.023 | [7] 0.164 | [2] 0.001 | lapatinib 0.002 | [3] 0.188 | [4] 0.192 | [5] 0.156 | [6] 0.014 | ispinesib 0.011

The results go on:

UTP20 (UniProt O75691)
inactive: [7] -0.087 | lapatinib 0.076 | [4] -0.379

USP27X (UniProt A6NNY8)
inactive: zotarolimus 0.049 | idasanutlin 0.023 | [4] 0.15 | [5] -0.049 | duvelisib -0.023 | tozasertib 0.072 | [6] -0.049 | ispinesib 0.091

VAV1 (UniProt P15498)
inactive: zotarolimus 0.272 | idasanutlin -0.015 | alisertib 0.06 | [2] 0.089 | pictilisib -0.068 | [4] 0.016 | [5] -0.078 | gandotinib -0.186 | tozasertib -0.185 | ispinesib 0.049

UTP18 (UniProt Q9Y5J1)
inactive: [1] 0.035 | filanesib 0.284 | gefitinib -0.067 | pictilisib 0.091 | [3] 0.051 | crizotinib -0.044 | [4] -0.115 | gandotinib 0.076 | doramapimod 0.281 | ispinesib -0.031

UBQLN3 (UniProt Q9H347)
inactive: [1] -0.026 | zotarolimus -0.074 | idasanutlin 0.015 | alisertib -0.126 | [7] 0.145 | gefitinib 0.008 | [2] -0.453 | lapatinib 0.035 | pictilisib 0.322 | crizotinib 0.002 | [4] 0.203 | [5] 0.087 | duvelisib 0.018 | gandotinib -0.145 | tozasertib -0.004 | [6] 0.043 | doramapimod -0.063 | ispinesib 0.175

UMAD1 (UniProt C9J7I0)
inactive: [1] 0.163 | zotarolimus 0.087 | alisertib -0.027 | [7] -0.219 | gefitinib -0.146 | [2] 0.011 | lapatinib -0.109 | pictilisib 0.124 | crizotinib 0.018 | [5] -0.264 | duvelisib 0.24 | gandotinib 0.084 | tozasertib 0.082 | [6] -0.172 | doramapimod 0.031 | ispinesib 0.235

UNC13A (UniProt Q9UPW8)
inactive: filanesib -0.178 | [3] -0.113 | tozasertib -0.017

USP46 (UniProt P62068)
inactive: [1] -0.009 | filanesib 0.037 | [7] -0.043 | lapatinib 0.072 | [3] 0.007 | crizotinib -0.012 | [4] 0.025 | doramapimod 0.112

UPP1 (UniProt Q16831)
inactive: [1] -0.109 | [7] -0.076 | lapatinib 0 | crizotinib -0.144 | tozasertib -0.059 | doramapimod -0.116

ULK3 isoform 4 (UniProt Q6PHR2)
inactive: [1] 0.199 | filanesib -0.145 | [7] -0.136 | lapatinib 0.057 | pictilisib 0.056 | [3] -0.088 | crizotinib -0.403 | [4] 0.15 | gandotinib -0.604 | doramapimod -0.149 | ispinesib -0.129

USP48 (UniProt Q86UV5)
inactive: filanesib -0.016 | alisertib 0.19 | gefitinib 0.053 | [2] -0.031 | [3] 0.015

UPF3A (UniProt Q9H1J1)
inactive: [1] -0.129 | filanesib 0.439 | [3] -0.156 | crizotinib 0.059 | [4] -0.283 | doramapimod 0.133

UHRF1 isoform 2 (UniProt Q96T88)
inactive: tozasertib -0.022

USF3 (UniProt Q68DE3)
inactive: [1] -0.412 | filanesib 0.086 | alisertib -0.057 | [7] 0.155 | [2] 0.223 | lapatinib -0.332 | [3] 0.195 | crizotinib 0.063 | [4] -0.021 | doramapimod -0.057 | ispinesib -0.219

UCHL1 (UniProt P09936)
inactive: pictilisib 0.075 | gandotinib -0.015

UTP23 (UniProt Q9BRU9)
inactive: zotarolimus 0.037 | gefitinib -0.224 | [5] 0.137 | duvelisib -0.04 | [6] 0.087

UQCR11 (UniProt O14957)
inactive: [1] -0.013 | idasanutlin 0.192 | alisertib 0.153 | gefitinib 0.299 | [2] 0.292 | pictilisib -0.049 | crizotinib -0.068 | gandotinib 0.215 | doramapimod -0.056 | ispinesib 0.107

USP33 (UniProt Q8TEY7)
inactive: filanesib 0.195 | idasanutlin 0.246 | [3] -0.067 | duvelisib 0.027 | tozasertib 0.035 | [6] 0.184 | ispinesib -0.023

USP16 (UniProt Q9Y5T5)
inactive: [1] -0.062 | zotarolimus 0.039 | idasanutlin 0.217 | alisertib -0.099 | gefitinib 0.083 | [2] -0.27 | pictilisib 0.012 | crizotinib 0.045 | [4] -0.349 | [5] 0.35 | duvelisib -0.159 | gandotinib 0.065 | tozasertib -0.331 | [6] 0.045 | doramapimod 0.247 | ispinesib 0.149

UBN2 (UniProt Q6ZU65)
inactive: [1] 0.013 | zotarolimus -0.155 | gefitinib -0.169 | crizotinib 0.008 | [5] 0.016 | doramapimod -0.148

USP4 (UniProt Q13107)
inactive: [1] -0.053 | crizotinib -0.01 | duvelisib -0.058 | [6] -0.023 | doramapimod 0.465

UQCC3 (UniProt Q6UW78)
inactive: zotarolimus -0.073 | gefitinib 0.186 | pictilisib -0.281 | [4] 0.126 | [5] 0.084 | gandotinib 0.209

VAMP3 (UniProt Q15836)
inactive: [1] 0.081 | zotarolimus -0.155 | alisertib -0.048 | gefitinib -0.004 | [2] 0.162 | crizotinib 0.016 | [4] -0.048 | [5] -0.026 | tozasertib -0.368 | doramapimod 0.023

UBXN8 (UniProt O00124)
inactive: filanesib 0.069 | zotarolimus -0.028 | idasanutlin -0.116 | [7] -0.035 | lapatinib 0.023 | pictilisib -0.002 | [3] 0.054 | [4] -0.094 | [5] 0.161 | gandotinib 0.026 | [6] -0.101 | ispinesib -0.193

VCPIP1 (UniProt Q96JH7)
inactive: filanesib 0.398 | pictilisib 0.357 | [3] -0.148 | [4] -0.68 | gandotinib 0.151

UNC5B (UniProt Q8IZJ1)
inactive: [4] -0.21 | duvelisib 0.19 | tozasertib 0.16 | [6] 0.089

UBQLN1 isoform 2 (UniProt Q9UMX0)
inactive: alisertib 0.046 | [2] 0.069 | duvelisib 0.154 | [6] 0.005

VASN (UniProt Q6EMK4)
inactive: filanesib -0.023 | [3] 0.069 | [4] -0.141

From the supplement of paper PMC10849652
